Measured values published in patent US20240226230A1.
No constants are given. Whether binding was seen depends on the method and setting. Some results given as binding are weak or reduced against the parent protein; the word gives no strength.

Sequences of proteins named here, by UniProt entry; tags and fusion partners are left off. A change or cut given only in a name is not applied to a line headed by its entry. A line that says so, or that is headed by a name, gives the form on record, which may keep a tag or linker. Residues count along the entry.
endogenous Nup62 (P37198, residues 2-522): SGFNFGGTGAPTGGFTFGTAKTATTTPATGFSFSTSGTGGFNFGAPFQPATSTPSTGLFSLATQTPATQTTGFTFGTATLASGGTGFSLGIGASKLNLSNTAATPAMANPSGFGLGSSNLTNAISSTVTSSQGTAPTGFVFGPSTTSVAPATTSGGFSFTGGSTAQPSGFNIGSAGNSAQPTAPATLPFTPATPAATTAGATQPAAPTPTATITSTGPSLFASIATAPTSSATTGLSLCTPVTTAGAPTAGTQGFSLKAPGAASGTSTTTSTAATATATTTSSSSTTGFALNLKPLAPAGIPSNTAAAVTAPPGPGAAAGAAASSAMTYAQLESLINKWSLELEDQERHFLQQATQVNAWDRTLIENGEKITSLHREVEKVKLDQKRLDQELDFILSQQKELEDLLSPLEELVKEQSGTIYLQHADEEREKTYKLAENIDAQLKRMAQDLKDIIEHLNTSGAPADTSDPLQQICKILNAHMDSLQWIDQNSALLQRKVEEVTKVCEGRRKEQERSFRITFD
Nup62-mCherry (P37198, form named): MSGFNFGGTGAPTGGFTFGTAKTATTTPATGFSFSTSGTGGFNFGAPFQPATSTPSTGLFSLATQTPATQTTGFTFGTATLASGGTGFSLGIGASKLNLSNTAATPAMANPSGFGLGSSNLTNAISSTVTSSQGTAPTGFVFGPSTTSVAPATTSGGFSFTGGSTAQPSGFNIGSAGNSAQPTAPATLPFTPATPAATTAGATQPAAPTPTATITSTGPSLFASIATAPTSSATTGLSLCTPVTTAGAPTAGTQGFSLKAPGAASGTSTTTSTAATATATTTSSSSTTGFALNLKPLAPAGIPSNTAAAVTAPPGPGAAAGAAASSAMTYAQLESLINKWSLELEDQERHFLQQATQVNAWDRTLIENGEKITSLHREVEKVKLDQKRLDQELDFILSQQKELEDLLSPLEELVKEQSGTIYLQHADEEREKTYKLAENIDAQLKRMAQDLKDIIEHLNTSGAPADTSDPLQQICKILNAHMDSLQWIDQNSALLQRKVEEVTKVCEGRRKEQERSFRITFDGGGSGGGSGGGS
GFP-XPO1 (O14980, form named): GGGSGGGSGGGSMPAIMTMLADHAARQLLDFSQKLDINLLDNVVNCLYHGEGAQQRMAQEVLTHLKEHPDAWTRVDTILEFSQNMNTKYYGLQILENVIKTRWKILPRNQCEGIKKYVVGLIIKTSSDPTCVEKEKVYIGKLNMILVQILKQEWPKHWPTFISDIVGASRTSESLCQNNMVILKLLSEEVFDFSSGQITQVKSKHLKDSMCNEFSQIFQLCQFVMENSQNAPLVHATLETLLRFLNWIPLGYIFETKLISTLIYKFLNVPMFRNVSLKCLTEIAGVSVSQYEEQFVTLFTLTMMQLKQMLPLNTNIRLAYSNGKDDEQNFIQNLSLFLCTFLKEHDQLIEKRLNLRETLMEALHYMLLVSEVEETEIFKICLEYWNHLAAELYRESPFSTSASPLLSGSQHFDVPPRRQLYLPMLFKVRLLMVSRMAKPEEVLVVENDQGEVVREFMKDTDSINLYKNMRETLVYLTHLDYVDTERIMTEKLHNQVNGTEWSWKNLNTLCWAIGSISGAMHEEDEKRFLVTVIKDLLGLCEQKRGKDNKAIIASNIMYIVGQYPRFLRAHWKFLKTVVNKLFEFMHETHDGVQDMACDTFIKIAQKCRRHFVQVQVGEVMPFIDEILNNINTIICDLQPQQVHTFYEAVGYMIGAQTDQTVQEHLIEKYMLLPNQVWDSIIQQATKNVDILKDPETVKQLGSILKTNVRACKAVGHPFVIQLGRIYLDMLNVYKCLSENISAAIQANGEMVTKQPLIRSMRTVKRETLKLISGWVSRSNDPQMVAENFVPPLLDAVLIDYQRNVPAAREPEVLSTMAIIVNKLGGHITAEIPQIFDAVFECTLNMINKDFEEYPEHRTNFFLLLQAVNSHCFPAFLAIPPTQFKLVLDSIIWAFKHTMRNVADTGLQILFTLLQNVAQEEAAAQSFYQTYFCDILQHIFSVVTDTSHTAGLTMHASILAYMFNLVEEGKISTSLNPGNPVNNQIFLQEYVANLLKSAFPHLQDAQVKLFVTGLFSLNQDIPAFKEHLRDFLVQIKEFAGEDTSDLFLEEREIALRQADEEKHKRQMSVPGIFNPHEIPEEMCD
UniProt P52948, residues 1-880: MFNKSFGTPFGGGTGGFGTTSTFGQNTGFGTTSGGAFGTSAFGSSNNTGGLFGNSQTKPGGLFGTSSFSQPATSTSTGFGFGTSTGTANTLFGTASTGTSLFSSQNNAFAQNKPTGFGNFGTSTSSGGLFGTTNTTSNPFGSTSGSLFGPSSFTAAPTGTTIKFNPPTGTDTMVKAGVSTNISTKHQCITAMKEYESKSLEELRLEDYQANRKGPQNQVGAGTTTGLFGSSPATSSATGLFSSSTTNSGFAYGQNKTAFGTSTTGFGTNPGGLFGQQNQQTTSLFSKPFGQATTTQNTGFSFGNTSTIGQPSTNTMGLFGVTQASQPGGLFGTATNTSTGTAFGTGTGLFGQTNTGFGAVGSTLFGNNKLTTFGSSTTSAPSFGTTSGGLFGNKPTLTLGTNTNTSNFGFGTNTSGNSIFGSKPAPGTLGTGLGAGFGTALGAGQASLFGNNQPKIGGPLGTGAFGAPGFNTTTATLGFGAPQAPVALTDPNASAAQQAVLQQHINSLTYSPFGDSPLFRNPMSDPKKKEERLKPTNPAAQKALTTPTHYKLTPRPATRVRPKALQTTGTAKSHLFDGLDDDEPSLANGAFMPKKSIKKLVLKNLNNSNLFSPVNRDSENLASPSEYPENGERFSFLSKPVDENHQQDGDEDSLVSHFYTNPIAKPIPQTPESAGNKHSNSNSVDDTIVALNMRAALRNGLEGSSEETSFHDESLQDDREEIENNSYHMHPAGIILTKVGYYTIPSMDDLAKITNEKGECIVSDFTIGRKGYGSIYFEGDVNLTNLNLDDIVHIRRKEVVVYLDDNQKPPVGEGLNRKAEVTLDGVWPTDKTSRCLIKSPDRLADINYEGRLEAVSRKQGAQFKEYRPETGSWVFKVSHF

Assays:
Nup62-mCherry [1] = biological target: Nup62-mCherry (UniProt P37198); test: co-localisation by immunofluorescence in HEK293T cells (not a direct binding assay)
Nup62-mCherry [2] = biological target: Nup62-mCherry (UniProt P37198); test: co-localisation by immunofluorescence in HEK293T cells (FIG. 22G; not a direct binding assay)
[3] = biological target: GFP-TDP-43^mNLS 5F-L (human) (UniProt Q13148); test: co-localisation by immunofluorescence in HEK293T cells (not a direct binding assay)
GFP-TDP-PrLD (human) [4] = biological target: GFP-TDP-PrLD (human) (UniProt Q13148); test: as above
GFP-TDP-43^mNLS (human) [5] = biological target: GFP-TDP-43^mNLS (human) (UniProt Q13148); test: as above
GFP-TDP-CTF (human) [6] = biological target: GFP-TDP-CTF (human) (UniProt Q13148); test: as above
GFP-TDP-PrLD (human) [7] = biological target: GFP-TDP-PrLD (human) (UniProt Q13148); test: co-localisation by fluorescence microscopy of co-transfected cells (not a direct binding assay)
GFP-TDP-43^mNLS (human) [8] = biological target: GFP-TDP-43^mNLS (human) (UniProt Q13148); test: as above
GFP-TDP-CTF (human) [9] = biological target: GFP-TDP-CTF (human) (UniProt Q13148); test: as above
GFP-TDP-CTF (human) [10] = biological target: GFP-TDP-CTF (human) (UniProt Q13148); test: GFP-Trap IP from HEK293T lysates, western blot (FIG. 22D; TDP-CTF is the reference)
GFP-TDP-CTF (human) [11] = biological target: GFP-TDP-CTF (human) (UniProt Q13148); test: GFP-Trap IP from HEK293T lysates, western blot
[12] = biological target: GFP-TDP-CTF^VLIM-F (human) (UniProt Q13148); test: co-localisation by immunocytochemistry (not a direct binding assay)
mCherry-TDP-CTF (human) [13] = biological target: mCherry-TDP-CTF (human) (UniProt Q13148); test: co-localisation by immunofluorescence in HEK293T cells (FIG. 35; not a direct binding assay)
[14] = biological target: mCherry-TDP-43^mNLS (human) (UniProt Q13148); test: as above
mCherry-TDP-PrLD (human) = mCherry-TDP-PrLD (human) (UniProt Q13148); test: as above
mCherry-TDP-CTF (human) [15] = biological target: mCherry-TDP-CTF (human) (UniProt Q13148); test: co-localisation by immunofluorescence in HEK293T cells (not a direct binding assay)

Measured: binding

GFP-TNPO1 (from UniProt Q92973 1-890)
binds: Nup62-mCherry [1]

GFP-XPO1 (from UniProt O14980 1-1071)
binds: Nup62-mCherry [2] | Nup62-mCherry [1]

Nup62-mCherry (from UniProt P37198 1-522)
binds: [3] | GFP-TDP-PrLD (human) [4] | GFP-TDP-43^mNLS (human) [5] | GFP-TDP-CTF (human) [6] | GFP-TDP-PrLD (human) [7] | GFP-TDP-43^mNLS (human) [8] | GFP-TDP-CTF (human) [9]

endogenous Nup62 (from UniProt P37198 2-522)
binds: GFP-TDP-CTF (human) [10] | GFP-TDP-CTF (human) [11] | [12]

endogenous Nup98 (from UniProt P52948 1-880)
binds: GFP-TDP-CTF (human) [10]

GFP-Nup98 (from UniProt P52948 1-880)
binds: mCherry-TDP-CTF (human) [13] | [14] | mCherry-TDP-PrLD (human) | mCherry-TDP-CTF (human) [15]
